We go through 53 sequences from PMC7862700.

Only a part is listed here, and it is no random draw. For some of these results: At the low end of the ranking, values are background and their order means little.

Test in all cases: DAPPL (digital affinity profiling via proximity ligation, sequencing)
Conditions in all cases: 10 mM Tris-HCl pH 7.5, 50 mM NaCl, 1 mM DTT, 4% glycerol, room temperature, 30 min; GST-TFs on glutathione beads, 16-mer random dsDNA library, 0.1% …; high values mean tight binding; double strand, one strand shown; scale: fold enrichment (6-mer frequency, TF over GST control)

The target in experiment [1] is T1, ELK1 (UniProt P19419).
T1 sequence: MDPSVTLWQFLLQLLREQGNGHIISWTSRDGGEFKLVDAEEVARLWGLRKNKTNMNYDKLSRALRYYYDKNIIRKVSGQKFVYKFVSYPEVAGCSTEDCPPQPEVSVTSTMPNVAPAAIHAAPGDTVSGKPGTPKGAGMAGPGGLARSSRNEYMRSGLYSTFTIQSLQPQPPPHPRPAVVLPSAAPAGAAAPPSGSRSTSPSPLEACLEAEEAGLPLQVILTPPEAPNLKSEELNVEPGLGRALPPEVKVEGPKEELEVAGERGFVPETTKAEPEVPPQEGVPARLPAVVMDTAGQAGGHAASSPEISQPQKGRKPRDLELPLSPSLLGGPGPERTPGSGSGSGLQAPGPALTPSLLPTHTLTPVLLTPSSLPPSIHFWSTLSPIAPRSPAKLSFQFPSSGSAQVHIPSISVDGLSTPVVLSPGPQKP

Experiment [2] deals with T2, ETS2 (UniProt P15036).
T2 sequence: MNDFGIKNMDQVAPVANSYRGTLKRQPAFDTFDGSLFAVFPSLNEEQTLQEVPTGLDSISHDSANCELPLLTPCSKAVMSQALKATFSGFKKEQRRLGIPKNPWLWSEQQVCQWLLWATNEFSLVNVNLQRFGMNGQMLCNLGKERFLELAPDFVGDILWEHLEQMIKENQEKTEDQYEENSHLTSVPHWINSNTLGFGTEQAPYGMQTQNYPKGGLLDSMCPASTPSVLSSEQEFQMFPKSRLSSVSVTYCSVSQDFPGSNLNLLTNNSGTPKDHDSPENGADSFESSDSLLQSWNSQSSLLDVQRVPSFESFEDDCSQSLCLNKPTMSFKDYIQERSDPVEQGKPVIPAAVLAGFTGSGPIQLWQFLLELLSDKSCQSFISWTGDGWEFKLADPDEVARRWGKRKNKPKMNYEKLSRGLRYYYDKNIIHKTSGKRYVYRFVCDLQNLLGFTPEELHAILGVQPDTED

For experiment [3], the target named is T3, ELK3 (UniProt P41970).
T3 sequence: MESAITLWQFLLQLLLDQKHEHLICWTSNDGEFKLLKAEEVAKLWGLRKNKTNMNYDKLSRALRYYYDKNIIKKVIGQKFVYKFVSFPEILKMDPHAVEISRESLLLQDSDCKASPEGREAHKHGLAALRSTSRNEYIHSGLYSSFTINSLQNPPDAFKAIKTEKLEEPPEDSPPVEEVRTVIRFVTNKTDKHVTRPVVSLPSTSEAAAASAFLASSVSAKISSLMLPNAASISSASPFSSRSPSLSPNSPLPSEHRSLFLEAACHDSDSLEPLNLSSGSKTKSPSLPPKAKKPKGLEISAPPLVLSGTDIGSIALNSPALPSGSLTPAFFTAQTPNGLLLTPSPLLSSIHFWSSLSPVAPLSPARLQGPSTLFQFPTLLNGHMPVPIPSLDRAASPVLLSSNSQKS

The target of experiment [4] is T4, ETV3 (UniProt P41162-2).
T4 sequence: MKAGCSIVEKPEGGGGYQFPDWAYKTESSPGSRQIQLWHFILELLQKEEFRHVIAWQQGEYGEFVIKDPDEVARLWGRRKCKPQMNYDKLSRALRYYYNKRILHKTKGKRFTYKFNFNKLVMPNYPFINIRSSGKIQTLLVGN

Consider CGGATA, for which the binding signal in experiment [1] was 1.27; in experiment [2], 1.3.
On to ACATCC, for which the binding signal turned out to be 2.73 in experiment [1], 2.98 in experiment [3], 2.68 in experiment [2] and 2.88 in experiment [4].
Turning to ATGCTT, the binding signal came to 1.42 in experiment [1] and 1.28 in experiment [2].
Take CTAAAA: the binding signal in experiment [1] was 1.12; in experiment [2], 1.21; in experiment [4], 1.12.
Regarding ATCCCC, the binding signal in experiment [1] was found to be 1.46; in experiment [2], 1.29.
Take TAACGA: the binding signal in experiment [1] amounted to 1.04; in experiment [2], 1.12.
In the case of CAAAAC, the binding signal in experiment [1] stood at 1.27; in experiment [2], 1.27; in experiment [4] it was 1.18.
With AAATGT, the binding signal in experiment [1] is 1.19; in experiment [2] it was 1.44.
In the same order, the values of TTACCG are 1.16 and 1.19.
For GTAAAA, in that order: 1 and 1.13.
In the same order, the values of ACGATC are 0.991 and 1.14.
With ACTACC, the figures for the binding signal in experiment [1] and in experiment [4] were 1.72 and 1.7, respectively.
For the sequence GAAAAG, the binding signal worked out at 1.01 in experiment [1], 0.972 in experiment [3] and 0.996 in experiment [4].
AATTGG: the binding signal in experiment [1] amounted to 1.36; in experiment [4], 1.28.
For ATACCA, in that order: 1.07 and 0.987.
In the same order, the values of CTACGA are 1.24 and 1.15.
In the same order, the values of AAACAT are 1.4 and 1.48.
Take ATGGAA: the binding signal in experiment [1] came out at 1.11; in experiment [4], 1.2.
With CTGCGA, the binding signal in experiment [1] came out at 1.31; in experiment [4], 1.32.
Consider ACTAAC, for which the binding signal is 1.3 in experiment [1] and 1.24 in experiment [4].
In the same order, the values of CTATAA are 1.22 and 1.14.
As for GTGGCT, the binding signal was 0.997 in experiment [1], 0.988 in experiment [3] and 1.12 in experiment [4].
For the sequence GCTATT, the figures for the binding signal in experiment [1] and in experiment [4] were 1.34 and 1.25, respectively.
AGCTTC: the binding signal in experiment [1] worked out at 1.86; in experiment [3], 2.06; in experiment [2], 1.77.
Turning to AACCCA, the values for the binding signal in experiment [1] and in experiment [4] were 1.03 and 0.982, respectively.
In the case of TTTGAG, the binding signal was 0.998 in experiment [1], 0.903 in experiment [3] and 1.22 in experiment [4].
In the same order, the values of ACCATA are 1.16, 1.22 and 1.19.
In the case of TCCCGC, the binding signal in experiment [1] is 1.53; in experiment [3], 1.46; in experiment [2], 1.34.
As to GTATTC, the binding signal came to 1.17 in experiment [1] and 1.34 in experiment [4].
For CCGATA, in that order: 1.13 and 1.14.
In the same order, the values of TTGTCC are 1.32 and 1.36.
In the same order, the values of TTAAGC are 1.18 and 1.22.
Take TCGATC: the binding signal was found to be 1.08 in experiment [1] and 1.18 in experiment [4].
For TCTCGG, in that order: 1.41 and 1.37.
For the sequence TATTGG, the binding signal in experiment [1] came to 1.14; in experiment [3], 1.07; in experiment [4] it was 1.17.
For TAATCT, in that order: 1.34, 1.46 and 1.28.
Regarding GCATCC, the binding signal was determined as 1.67 in experiment [1] and 1.62 in experiment [4].
In the case of GGTTTT, the binding signal in experiment [1] turned out to be 0.998; in experiment [3], 1.04; in experiment [2] it was 1.1.
On to ATACGT, for which the binding signal in experiment [1] and in experiment [4] was 1.14 each time.
On to TCGACC, for which the results for the binding signal in experiment [1], in experiment [3] and in experiment [4] were 1.32, 1.35 and 1.27, respectively.
For AAAGAA, in that order: 1.24, 1.3 and 1.2.
Turning to ATGAAA, the binding signal worked out at 1.17 in experiment [1] and 1.1 in experiment [4].
In the case of TTCCTT, the binding signal was found to be 1.79 in experiment [1], 2.09 in experiment [3] and 2.13 in experiment [4].
Turning to CGCTCC, the binding signal in experiment [1] came out at 1.28; in experiment [3], 1.37; in experiment [2], 1.39.
Take CGTTCG: the values for the binding signal in experiment [1] and in experiment [4] were 1.14 and 1.19, respectively.
For ATTTCC, in that order: 3.9 and 4.45.
In the same order, the values of GTACTC are 1.09 and 1.11.
On to CTCAAA, for which the binding signal in experiment [1] was determined as 1.14; in experiment [3], 1.15; in experiment [4] it was 1.2.
For the sequence CCTGGT, the binding signal in experiment [1] was found to be 1.34; in experiment [4], 1.49.
As for CCTCAC, the figures for the binding signal in experiment [1] and in experiment [4] were 1.3 and 1.12, respectively.
Take CCCTCG: the values for the binding signal in experiment [1] and in experiment [3] were 1.34 and 1.15, respectively.
Take GAATAC: the binding signal was 1.1 in experiment [1] and 0.997 in experiment [3].
For AACAAT, in that order: 1.29 and 1.32.
